This note sets out measurements from PMC4466140, “Evolution of the SH3 Domain Specificity Landscape in Yeasts” (PLoS ONE, 2015).

The chains behind the UniProt entries cited, without tags or fusion partners. Residues count along the entry.
UniProt P39743, residues 421-482: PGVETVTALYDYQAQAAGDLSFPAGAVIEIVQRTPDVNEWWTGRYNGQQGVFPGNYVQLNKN

No constants are given. Whether binding was seen depends on the method and setting. Some entries that bind do so weakly or less than the wild type.

Assay [1] concerns the target T1, Type II peptide #66 (yeast two-hybrid bait) (S. cerevisiae).
T1 sequence (peptide): SSSSTPPTLPPRRIE
As to the kind of experiment: two-hybrid; peptides as bait in pGBKT7, SH3 domains as prey in pYR035 (modified pGADT7); S. cerevisiae Gold strain; ~10^4 cells spotted on His-, His- with 2.5, 5 or 10 mM 3AT, or Ade- plates; three days at 28°C.

Assay [2] concerns the target T2, non-canonical Type I peptide #268 (yeast two-hybrid bait) (S. cerevisiae).
T2 sequence (peptide): ITHRLRISIPGITGR
The description is as above.

Regarding “S. cerevisiae Rvs167 SH3 domain (yeast two-hybrid prey) (from UniProt P39743 421-482) (domain or fragment)”, the binding result was “binds” in assay [1] and “no binding” in assay [2].

B1: S. pombe Rvs167 (Hob1) SH3 domain (yeast two-hybrid prey) (domain or fragment, UniProt O74352 407-466)
chain: PAAEHVVALYDYAAQAAGDLSFHAGDRIEVVSRTDNQNEWWIGRLNGAQGQFPGNYVQLE
Turning to B1, the values for the binding entry in assay [1] and in assay [2] were “binds” and “no binding”, respectively.

B2: C. albicans Rvs167 SH3 domain (yeast two-hybrid prey) (domain or fragment, UniProt Q59LF3 382-440)
chain: SGLPTCTALYDYTAQAQGDLTFPAGAVIEIIQRTEDANGWWTGKYNGQTGVFPGNYVQL
Turning to B2, the binding result in assay [1] is reported as “binds”; in assay [2] it was “no binding”.
